Consider one substance from paper PMC5046194.

Chains of the proteins cited; added tags and fusions are not shown.
UniProt P04608: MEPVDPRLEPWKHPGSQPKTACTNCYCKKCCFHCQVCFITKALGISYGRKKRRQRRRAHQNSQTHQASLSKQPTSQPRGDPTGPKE
UniProt Q9H4L4: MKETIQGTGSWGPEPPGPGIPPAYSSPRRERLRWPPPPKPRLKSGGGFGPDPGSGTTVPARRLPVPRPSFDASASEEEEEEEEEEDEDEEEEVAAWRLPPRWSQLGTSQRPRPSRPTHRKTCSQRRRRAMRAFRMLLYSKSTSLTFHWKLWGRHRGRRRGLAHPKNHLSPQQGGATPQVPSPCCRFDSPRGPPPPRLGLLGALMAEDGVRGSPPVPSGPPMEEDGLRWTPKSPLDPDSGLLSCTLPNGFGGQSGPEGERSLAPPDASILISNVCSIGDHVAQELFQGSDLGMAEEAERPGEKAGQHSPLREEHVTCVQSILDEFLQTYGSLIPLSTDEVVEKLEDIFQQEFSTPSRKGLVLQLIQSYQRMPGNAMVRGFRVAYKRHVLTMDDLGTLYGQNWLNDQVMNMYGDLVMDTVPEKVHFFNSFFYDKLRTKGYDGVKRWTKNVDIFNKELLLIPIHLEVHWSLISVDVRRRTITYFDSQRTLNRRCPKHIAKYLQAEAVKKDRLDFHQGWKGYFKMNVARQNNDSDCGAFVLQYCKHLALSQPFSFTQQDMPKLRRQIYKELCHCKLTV

This assay deals with HIV-1 Tat (HIV-1) (UniProt P04608). Briefly: co-IP; co-immunoprecipitation in the presence and absence of SUMO protease inhibitors.

These are yes or no findings as the source states them, for the method shown. Binding seen in cells or lysates may run through a third protein. Some entries that bind do so weakly or less than the wild type.

As to “SENP3 (from UniProt Q9H4L4 1-574) (enzyme)”, the binding result was “binds”.
